# Data reported in the supplement of paper PMC10849652.
# Chains of the proteins cited; added tags and fusions are not shown. Lines headed by an entry give the natural chain unless they say otherwise; changes in a name come on top.
# UniProt Q7Z2Z1: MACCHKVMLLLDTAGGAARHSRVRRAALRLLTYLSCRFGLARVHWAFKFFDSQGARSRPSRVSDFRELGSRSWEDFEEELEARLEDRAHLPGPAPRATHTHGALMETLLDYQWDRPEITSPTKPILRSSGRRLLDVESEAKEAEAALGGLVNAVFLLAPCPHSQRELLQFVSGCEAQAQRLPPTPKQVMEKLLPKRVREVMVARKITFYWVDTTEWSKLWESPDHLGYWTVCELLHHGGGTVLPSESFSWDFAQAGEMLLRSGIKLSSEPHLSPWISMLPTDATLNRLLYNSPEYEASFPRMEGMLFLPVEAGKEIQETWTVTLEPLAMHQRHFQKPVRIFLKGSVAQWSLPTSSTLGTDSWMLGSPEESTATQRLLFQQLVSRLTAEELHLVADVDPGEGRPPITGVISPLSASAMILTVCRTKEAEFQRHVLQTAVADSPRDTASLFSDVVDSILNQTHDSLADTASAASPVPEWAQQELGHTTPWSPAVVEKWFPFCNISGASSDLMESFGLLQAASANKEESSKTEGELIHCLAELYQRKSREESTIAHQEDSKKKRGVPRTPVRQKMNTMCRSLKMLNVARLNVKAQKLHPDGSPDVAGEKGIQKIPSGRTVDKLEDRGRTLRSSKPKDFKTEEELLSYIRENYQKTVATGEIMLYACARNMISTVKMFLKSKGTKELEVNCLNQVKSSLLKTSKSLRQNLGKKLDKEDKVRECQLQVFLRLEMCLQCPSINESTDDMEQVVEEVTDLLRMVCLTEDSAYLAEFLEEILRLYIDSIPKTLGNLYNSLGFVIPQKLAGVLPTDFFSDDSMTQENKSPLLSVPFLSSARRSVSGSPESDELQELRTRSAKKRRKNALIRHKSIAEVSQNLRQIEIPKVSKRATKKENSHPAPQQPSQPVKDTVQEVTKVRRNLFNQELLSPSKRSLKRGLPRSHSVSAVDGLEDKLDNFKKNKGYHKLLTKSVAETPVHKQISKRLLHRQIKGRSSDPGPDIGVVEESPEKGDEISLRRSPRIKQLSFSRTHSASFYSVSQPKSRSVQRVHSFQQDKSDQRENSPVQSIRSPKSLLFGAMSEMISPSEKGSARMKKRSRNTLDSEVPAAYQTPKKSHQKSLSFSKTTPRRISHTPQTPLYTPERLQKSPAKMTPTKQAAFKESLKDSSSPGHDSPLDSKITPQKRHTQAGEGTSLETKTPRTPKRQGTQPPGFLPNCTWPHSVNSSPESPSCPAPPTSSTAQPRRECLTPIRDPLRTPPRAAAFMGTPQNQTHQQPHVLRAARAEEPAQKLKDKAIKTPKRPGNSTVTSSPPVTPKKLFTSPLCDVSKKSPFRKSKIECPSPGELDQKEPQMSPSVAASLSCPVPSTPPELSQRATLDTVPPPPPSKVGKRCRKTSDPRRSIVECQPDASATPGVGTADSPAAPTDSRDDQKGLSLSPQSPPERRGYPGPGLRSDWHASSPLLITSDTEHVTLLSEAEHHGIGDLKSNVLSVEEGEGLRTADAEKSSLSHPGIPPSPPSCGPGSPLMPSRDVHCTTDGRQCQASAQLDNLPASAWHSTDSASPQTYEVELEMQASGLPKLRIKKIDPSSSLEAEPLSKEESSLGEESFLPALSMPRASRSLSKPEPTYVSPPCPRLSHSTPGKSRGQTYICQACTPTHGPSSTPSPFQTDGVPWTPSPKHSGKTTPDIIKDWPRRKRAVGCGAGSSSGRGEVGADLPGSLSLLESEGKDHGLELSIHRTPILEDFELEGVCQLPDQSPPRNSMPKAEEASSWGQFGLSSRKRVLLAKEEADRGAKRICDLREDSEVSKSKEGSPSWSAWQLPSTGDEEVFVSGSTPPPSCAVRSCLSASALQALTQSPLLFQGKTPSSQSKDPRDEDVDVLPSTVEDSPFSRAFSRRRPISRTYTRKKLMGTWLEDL
# UniProt P51854: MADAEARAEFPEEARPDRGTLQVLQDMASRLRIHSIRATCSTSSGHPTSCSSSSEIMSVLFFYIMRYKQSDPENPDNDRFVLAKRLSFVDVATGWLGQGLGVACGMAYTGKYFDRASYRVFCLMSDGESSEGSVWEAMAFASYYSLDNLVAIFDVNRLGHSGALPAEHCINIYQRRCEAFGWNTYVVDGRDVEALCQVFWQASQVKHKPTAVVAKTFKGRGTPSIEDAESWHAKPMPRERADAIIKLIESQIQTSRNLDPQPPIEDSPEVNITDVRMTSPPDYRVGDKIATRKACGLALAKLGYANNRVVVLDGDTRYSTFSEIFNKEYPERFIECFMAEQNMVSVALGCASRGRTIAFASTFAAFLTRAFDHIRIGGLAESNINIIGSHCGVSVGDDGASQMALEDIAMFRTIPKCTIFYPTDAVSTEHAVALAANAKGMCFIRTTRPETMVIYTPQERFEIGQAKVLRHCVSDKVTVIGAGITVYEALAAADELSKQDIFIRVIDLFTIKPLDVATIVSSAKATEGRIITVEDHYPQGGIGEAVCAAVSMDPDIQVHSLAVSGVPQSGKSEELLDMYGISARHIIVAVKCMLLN
# UniProt Q86UE8, whole entry, looked up: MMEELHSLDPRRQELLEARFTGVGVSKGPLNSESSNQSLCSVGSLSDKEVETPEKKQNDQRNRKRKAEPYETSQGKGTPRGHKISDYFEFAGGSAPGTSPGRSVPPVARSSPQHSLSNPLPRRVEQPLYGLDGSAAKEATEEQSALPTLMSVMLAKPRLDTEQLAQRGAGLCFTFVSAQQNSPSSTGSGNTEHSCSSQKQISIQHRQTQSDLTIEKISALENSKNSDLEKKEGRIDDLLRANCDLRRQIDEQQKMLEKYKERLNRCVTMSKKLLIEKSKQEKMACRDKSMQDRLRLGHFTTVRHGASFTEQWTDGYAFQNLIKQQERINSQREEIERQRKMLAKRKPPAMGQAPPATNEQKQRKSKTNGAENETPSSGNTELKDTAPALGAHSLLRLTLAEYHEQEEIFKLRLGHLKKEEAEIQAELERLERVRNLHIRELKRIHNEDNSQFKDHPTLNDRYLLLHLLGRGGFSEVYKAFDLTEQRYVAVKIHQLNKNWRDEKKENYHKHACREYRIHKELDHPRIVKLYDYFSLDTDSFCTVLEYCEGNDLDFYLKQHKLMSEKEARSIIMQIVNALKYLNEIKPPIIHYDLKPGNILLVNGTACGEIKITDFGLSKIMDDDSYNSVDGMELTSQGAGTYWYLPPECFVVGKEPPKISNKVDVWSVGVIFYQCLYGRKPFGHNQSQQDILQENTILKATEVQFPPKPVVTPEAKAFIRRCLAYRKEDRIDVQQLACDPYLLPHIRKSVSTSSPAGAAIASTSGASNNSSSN
# UniProt Q9NVA4: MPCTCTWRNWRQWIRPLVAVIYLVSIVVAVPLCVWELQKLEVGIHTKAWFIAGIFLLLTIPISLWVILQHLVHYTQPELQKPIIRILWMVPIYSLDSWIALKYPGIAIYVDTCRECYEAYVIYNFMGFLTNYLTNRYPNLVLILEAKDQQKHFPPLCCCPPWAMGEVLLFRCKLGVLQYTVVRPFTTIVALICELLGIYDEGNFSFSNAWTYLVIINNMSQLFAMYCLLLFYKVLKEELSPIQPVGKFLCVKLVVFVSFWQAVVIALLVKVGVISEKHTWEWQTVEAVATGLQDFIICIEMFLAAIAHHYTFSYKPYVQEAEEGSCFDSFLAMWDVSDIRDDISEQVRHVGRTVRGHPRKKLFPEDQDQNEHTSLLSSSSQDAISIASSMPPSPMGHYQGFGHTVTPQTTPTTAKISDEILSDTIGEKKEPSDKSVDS
# UniProt P37173, whole entry, looked up: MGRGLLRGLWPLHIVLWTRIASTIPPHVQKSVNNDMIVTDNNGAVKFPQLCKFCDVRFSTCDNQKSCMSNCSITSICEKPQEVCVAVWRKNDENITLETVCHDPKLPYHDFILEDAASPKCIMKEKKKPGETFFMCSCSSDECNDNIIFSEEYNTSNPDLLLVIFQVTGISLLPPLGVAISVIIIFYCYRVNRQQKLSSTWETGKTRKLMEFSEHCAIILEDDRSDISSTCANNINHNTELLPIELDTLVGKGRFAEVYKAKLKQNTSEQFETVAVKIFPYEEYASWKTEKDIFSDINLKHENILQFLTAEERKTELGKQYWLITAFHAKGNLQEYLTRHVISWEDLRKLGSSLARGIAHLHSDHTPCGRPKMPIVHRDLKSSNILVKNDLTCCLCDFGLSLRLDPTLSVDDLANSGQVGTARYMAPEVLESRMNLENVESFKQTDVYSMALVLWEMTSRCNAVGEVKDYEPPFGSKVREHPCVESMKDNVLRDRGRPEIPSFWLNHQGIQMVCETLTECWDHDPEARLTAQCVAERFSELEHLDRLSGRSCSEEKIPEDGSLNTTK
# UniProt Q8N9M5: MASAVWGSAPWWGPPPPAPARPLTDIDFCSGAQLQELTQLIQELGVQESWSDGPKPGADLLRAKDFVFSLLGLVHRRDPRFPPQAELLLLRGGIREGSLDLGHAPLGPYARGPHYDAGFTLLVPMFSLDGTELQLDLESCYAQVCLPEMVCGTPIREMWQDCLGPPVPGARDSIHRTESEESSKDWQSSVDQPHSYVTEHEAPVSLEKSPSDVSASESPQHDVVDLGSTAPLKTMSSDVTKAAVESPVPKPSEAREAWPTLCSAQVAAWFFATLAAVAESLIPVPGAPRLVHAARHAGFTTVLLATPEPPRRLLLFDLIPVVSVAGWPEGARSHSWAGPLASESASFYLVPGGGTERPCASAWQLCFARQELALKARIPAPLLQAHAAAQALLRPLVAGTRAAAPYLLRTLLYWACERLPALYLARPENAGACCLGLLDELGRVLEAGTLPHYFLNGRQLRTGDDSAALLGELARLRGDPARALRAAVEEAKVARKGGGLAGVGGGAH
# UniProt Q8WTV1: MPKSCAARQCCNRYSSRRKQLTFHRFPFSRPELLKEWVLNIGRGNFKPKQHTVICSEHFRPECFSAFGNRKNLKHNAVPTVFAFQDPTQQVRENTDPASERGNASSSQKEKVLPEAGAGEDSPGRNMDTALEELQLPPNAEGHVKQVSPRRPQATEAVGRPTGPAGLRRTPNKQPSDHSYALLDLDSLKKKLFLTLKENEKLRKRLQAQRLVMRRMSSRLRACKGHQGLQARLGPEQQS
# UniProt Q96AN5: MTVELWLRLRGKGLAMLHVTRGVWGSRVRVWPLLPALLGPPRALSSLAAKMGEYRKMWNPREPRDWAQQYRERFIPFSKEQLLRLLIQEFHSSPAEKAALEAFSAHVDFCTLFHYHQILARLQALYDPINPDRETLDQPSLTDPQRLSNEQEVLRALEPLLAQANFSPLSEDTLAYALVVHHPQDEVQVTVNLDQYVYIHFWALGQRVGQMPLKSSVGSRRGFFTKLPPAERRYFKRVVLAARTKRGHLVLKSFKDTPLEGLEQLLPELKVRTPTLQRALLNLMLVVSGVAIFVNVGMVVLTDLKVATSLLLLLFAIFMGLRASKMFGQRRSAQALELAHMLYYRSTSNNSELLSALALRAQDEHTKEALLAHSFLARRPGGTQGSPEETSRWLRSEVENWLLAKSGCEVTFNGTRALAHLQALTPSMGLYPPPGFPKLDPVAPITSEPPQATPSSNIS
# UniProt Q9Y519: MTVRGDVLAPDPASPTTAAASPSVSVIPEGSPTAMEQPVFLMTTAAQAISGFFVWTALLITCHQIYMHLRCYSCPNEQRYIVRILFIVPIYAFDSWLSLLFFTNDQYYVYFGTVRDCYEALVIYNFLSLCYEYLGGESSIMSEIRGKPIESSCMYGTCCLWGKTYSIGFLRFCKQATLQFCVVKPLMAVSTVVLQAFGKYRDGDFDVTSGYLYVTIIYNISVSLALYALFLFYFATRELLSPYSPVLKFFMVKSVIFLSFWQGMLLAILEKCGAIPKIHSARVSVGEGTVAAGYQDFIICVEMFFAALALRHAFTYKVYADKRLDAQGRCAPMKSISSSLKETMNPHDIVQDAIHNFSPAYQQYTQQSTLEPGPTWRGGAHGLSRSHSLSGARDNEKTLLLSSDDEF
# UniProt O15321, whole entry, looked up: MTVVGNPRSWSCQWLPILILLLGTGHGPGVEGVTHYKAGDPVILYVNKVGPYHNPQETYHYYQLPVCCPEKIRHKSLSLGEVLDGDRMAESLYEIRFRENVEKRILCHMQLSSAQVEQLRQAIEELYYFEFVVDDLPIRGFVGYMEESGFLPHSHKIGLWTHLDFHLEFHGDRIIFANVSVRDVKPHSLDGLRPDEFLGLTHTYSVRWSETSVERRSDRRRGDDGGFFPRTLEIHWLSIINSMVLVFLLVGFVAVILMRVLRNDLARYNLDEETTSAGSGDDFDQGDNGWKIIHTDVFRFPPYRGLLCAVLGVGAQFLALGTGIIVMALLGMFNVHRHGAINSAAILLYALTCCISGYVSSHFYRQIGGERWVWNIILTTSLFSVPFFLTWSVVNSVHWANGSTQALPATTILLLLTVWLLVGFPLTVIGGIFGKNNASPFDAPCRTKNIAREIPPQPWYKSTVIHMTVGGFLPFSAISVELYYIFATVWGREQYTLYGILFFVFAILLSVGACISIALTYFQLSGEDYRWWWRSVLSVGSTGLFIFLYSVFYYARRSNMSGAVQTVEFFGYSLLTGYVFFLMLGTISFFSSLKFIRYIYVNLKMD
# The other results are listed elsewhere or left out.
# What was measured:
# Assay in all cases: log2 fold change, soluble protein after heating vs DMSO (PISA); higher = thermal stabilisation; K562 lysate, 10 uM; active = over 0.2 and 3.5 SD of the protein, either way, in both replicates (recomputed)
# [1] = compound: CNc1nc(-c2ccc3c(N)n[nH]c3c2)cc(N2C[C@@H](C(=O)NC3CCCCC3)CC[C@H]2C)n1
# Outline: (§1)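 K562 pellets were dounce-homogenised in PBS pH 7.4 with 1 mM MgCl2, and the crude extract at 1 mg/mL protein was treated with 10 μM compound for 30 min. Aliquots were heated for 3 min across 48°C-58°C, pooled, and brought to 0.5% NP-40 at 4°C; soluble protein was the supernatant after 21,000xg for 90 min. Soluble protein was quantified by TMTpro 16plex LC-MS/MS with channel sums equalised, and reported as log2 fold change in thermal stability against DMSO controls, with values from duplicates.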
# duvelisib = compound: C[C@H](Nc1ncnc2nc[nH]c12)c1cc2cccc(Cl)c2c(=O)n1-c1ccccc1 [duvelisib]
# Outline: as §1
# Tubastatin A = compound: CN1CCc2c(c3ccccc3n2Cc2ccc(C(=O)NO)cc2)C1 [Tubastatin A]
# Outline: as §1
# [2] = compound: CNC(=O)C1=CC=CC=C1NC2=NC(=NC=C2Cl)NC3=C(C=C(C=C3)N4CCOCC4)OC
# Outline: as §1
# defactinib = compound: CNC(=O)c1ccc(Nc2ncc(C(F)(F)F)c(NCc3nccnc3N(C)S(C)(=O)=O)n2)cc1 [defactinib]
# Outline: as §1
# encorafenib = compound: COC(=O)N[C@@H](C)CNc1nccc(-c2cn(C(C)C)nc2-c2cc(Cl)cc(NS(C)(=O)=O)c2F)n1 [encorafenib]
# Outline: as §1
# [3] = compound: COC(=O)[C@H](CCSC)NC(=O)C1=C(C=C(C=C1)NC[C@H](CS)N)C2=CC=CC=C2
# Outline: as §1
# alisertib = compound: COc1cc(Nc2ncc3c(n2)-c2ccc(Cl)cc2C(c2c(F)cccc2OC)=NC3)ccc1C(=O)O [alisertib]
# Outline: as §1
# [4] = compound: COc1cc2nc(-c3cc(F)ccc3O)nc(N[C@@H]3CNC[C@H]3C(C)(C)O)c2cc1OC
# Outline: as §1
# gefitinib = compound: COc1cc2ncnc(Nc3ccc(F)c(Cl)c3)c2cc1OCCCN1CCOCC1 [gefitinib]
# Outline: as §1
# lapatinib = compound: CS(=O)(=O)CCNCc1ccc(-c2ccc3ncnc(Nc4ccc(OCc5cccc(F)c5)c(Cl)c4)c3c2)o1 [lapatinib]
# Outline: as §1
# pictilisib = compound: CS(=O)(=O)N1CCN(Cc2cc3nc(-c4cccc5[nH]ncc45)nc(N4CCOCC4)c3s2)CC1 [pictilisib]
# Outline: as §1
# crizotinib = compound: C[C@@H](Oc1cc(-c2cnn(C3CCNCC3)c2)cnc1N)c1c(Cl)ccc(F)c1Cl [crizotinib]
# Outline: as §1
# tozasertib = compound: Cc1cc(Nc2cc(N3CCN(C)CC3)nc(Sc3ccc(NC(=O)C4CC4)cc3)n2)n[nH]1 [tozasertib]
# Outline: as §1
# doramapimod = compound: Cc1ccc(-n2nc(C(C)(C)C)cc2NC(=O)Nc2ccc(OCCN3CCOCC3)c3ccccc23)cc1 [doramapimod]
# Outline: as §1
# bafetinib = compound: Cc1ccc(NC(=O)c2ccc(CN3CC[C@H](N(C)C)C3)c(C(F)(F)F)c2)cc1Nc1nccc(-c2cncnc2)n1 [bafetinib]
# Outline: as §1
# alvocidib = compound: CN1CC[C@H](c2c(O)cc(O)c3c(=O)cc(-c4ccccc4Cl)oc23)[C@H](O)C1 [alvocidib]
# Outline: as §1
# [5] = compound: C[C@H](C1=CC=C(C=C1)C(=O)NC2=C3C=CNC3=NC=C2)N
# Outline: as §1
# gandotinib = compound: Cc1cc(Nc2cc(CN3CCOCC3)c3nc(C)c(Cc4ccc(Cl)cc4F)n3n2)n[nH]1 [gandotinib]
# Outline: as §1
# [6] = compound: Cc1cccc(CC(=O)N2CCc3c2ccc(-c2cn(C)c4ncnc(N)c24)c3F)n1
# Outline: as §1
target,measurement,setting,value
TICRR (UniProt Q7Z2Z1),log2 fold change,[1],inactive: -0.372
same,log2 fold change,duvelisib,inactive: 0.116
TLE3 (UniProt H0YL70),log2 fold change,[1],inactive: 0.153
same,log2 fold change,duvelisib,inactive: 0.037
TMEM14C (UniProt Q9P0S9),log2 fold change,Tubastatin A,active: -0.463
same,log2 fold change,[2],inactive: 0.033
same,log2 fold change,defactinib,inactive: 0.205
same,log2 fold change,[1],inactive: 0.011
same,log2 fold change,encorafenib,inactive: 0.004
same,log2 fold change,[3],inactive: 0.022
same,log2 fold change,alisertib,inactive: -0.011
same,log2 fold change,[4],inactive: -0.168
same,log2 fold change,gefitinib,inactive: 0.003
same,log2 fold change,lapatinib,inactive: 0.123
same,log2 fold change,pictilisib,inactive: 0.162
same,log2 fold change,crizotinib,inactive: -0.087
same,log2 fold change,duvelisib,inactive: 0.016
same,log2 fold change,tozasertib,inactive: -0.099
same,log2 fold change,doramapimod,inactive: 0.002
same,log2 fold change,bafetinib,inactive: -0.094
TKTL1 (UniProt P51854),log2 fold change,alvocidib,inactive: 0.074
same,log2 fold change,[1],inactive: -0.039
same,log2 fold change,encorafenib,inactive: -0.235
same,log2 fold change,[3],inactive: 0.299
same,log2 fold change,[5],inactive: 0.051
same,log2 fold change,duvelisib,inactive: 0.31
same,log2 fold change,gandotinib,inactive: -0.007
same,log2 fold change,tozasertib,inactive: -0.171
same,log2 fold change,[6],inactive: -0.173
TJP1 (UniProt H0Y3R8),log2 fold change,alvocidib,inactive: 0.079
same,log2 fold change,[5],inactive: 0.068
same,log2 fold change,gandotinib,inactive: -0.057
same,log2 fold change,[6],inactive: -0.063
TMEM127 (UniProt O75204),log2 fold change,[2],inactive: -0.04
same,log2 fold change,defactinib,inactive: -0.037
same,log2 fold change,[1],inactive: -0.099
same,log2 fold change,encorafenib,inactive: 0.037
same,log2 fold change,[3],inactive: 0.019
same,log2 fold change,pictilisib,inactive: 0.009
same,log2 fold change,duvelisib,inactive: 0.075
same,log2 fold change,tozasertib,inactive: 0.016
same,log2 fold change,bafetinib,inactive: 0.021
TLK2 isoform 3 (UniProt Q86UE8),log2 fold change,alvocidib,inactive: 0.007
same,log2 fold change,[5],inactive: 0.012
same,log2 fold change,gandotinib,inactive: 0.009
same,log2 fold change,[6],inactive: -0.101
TMEM106C (UniProt Q9BVX2),log2 fold change,[2],inactive: 0.32
same,log2 fold change,encorafenib,inactive: -0.008
same,log2 fold change,[3],inactive: 0.124
same,log2 fold change,pictilisib,inactive: -0.005
same,log2 fold change,tozasertib,inactive: 0.033
same,log2 fold change,bafetinib,inactive: -0.146
TMEM184C (UniProt Q9NVA4),log2 fold change,Tubastatin A,inactive: 0.066
same,log2 fold change,[2],inactive: -0.042
same,log2 fold change,[1],inactive: -0.004
same,log2 fold change,encorafenib,inactive: -0.041
same,log2 fold change,[3],inactive: -0.056
same,log2 fold change,alisertib,inactive: -0.042
same,log2 fold change,[4],inactive: 0.137
same,log2 fold change,gefitinib,inactive: 0.071
same,log2 fold change,lapatinib,inactive: 0.077
same,log2 fold change,pictilisib,inactive: 0.069
same,log2 fold change,crizotinib,inactive: 0.035
same,log2 fold change,duvelisib,inactive: -0.001
same,log2 fold change,tozasertib,inactive: 0.057
same,log2 fold change,doramapimod,inactive: -0.064
same,log2 fold change,bafetinib,inactive: -0.051
TGFBR2 isoform 2 (UniProt P37173),log2 fold change,Tubastatin A,inactive: 0.165
same,log2 fold change,[2],inactive: 0.104
same,log2 fold change,[1],inactive: 0.094
same,log2 fold change,encorafenib,inactive: -0.154
same,log2 fold change,[3],inactive: 0.116
same,log2 fold change,duvelisib,inactive: -0.063
same,log2 fold change,tozasertib,inactive: -0.011
TMEM102 (UniProt Q8N9M5),log2 fold change,Tubastatin A,inactive: 0.079
same,log2 fold change,defactinib,inactive: -0.052
same,log2 fold change,encorafenib,inactive: 0.079
same,log2 fold change,[3],inactive: 0.119
same,log2 fold change,alisertib,inactive: -0.315
same,log2 fold change,gefitinib,inactive: -0.094
same,log2 fold change,crizotinib,inactive: -0.042
same,log2 fold change,tozasertib,inactive: -0.075
same,log2 fold change,doramapimod,inactive: 0.116
THAP3 (UniProt Q8WTV1),log2 fold change,Tubastatin A,inactive: 0.063
same,log2 fold change,[2],inactive: -0.049
same,log2 fold change,alisertib,inactive: 0.034
same,log2 fold change,gefitinib,inactive: -0.025
same,log2 fold change,crizotinib,inactive: 0.046
same,log2 fold change,doramapimod,inactive: 0.044
TMEM143 (UniProt Q96AN5),log2 fold change,alvocidib,inactive: -0.065
same,log2 fold change,Tubastatin A,inactive: 0.181
same,log2 fold change,defactinib,inactive: 0.327
same,log2 fold change,[1],inactive: 0.324
same,log2 fold change,encorafenib,inactive: 0.34
same,log2 fold change,[3],inactive: -0.097
same,log2 fold change,alisertib,inactive: -0.204
same,log2 fold change,[4],inactive: -0.058
same,log2 fold change,gefitinib,inactive: -0.227
same,log2 fold change,lapatinib,inactive: 0.027
same,log2 fold change,crizotinib,inactive: -0.011
same,log2 fold change,[5],inactive: 0.102
same,log2 fold change,duvelisib,inactive: -0.236
same,log2 fold change,gandotinib,inactive: 0.134
same,log2 fold change,tozasertib,inactive: 0.011
same,log2 fold change,doramapimod,inactive: -0.111
same,log2 fold change,[6],inactive: 0.068
TMEM154 (UniProt Q6P9G4),log2 fold change,Tubastatin A,inactive: 0.063
same,log2 fold change,[1],inactive: -0.099
same,log2 fold change,encorafenib,inactive: -0.015
same,log2 fold change,[3],inactive: 0.023
same,log2 fold change,crizotinib,inactive: 0.035
same,log2 fold change,duvelisib,inactive: 0.039
same,log2 fold change,tozasertib,inactive: 0.03
same,log2 fold change,doramapimod,inactive: -0.146
TMEM184B (UniProt Q9Y519),log2 fold change,Tubastatin A,inactive: 0.014
same,log2 fold change,[1],inactive: -0.018
same,log2 fold change,crizotinib,inactive: 0.024
same,log2 fold change,duvelisib,inactive: 0.053
same,log2 fold change,doramapimod,inactive: -0.07
TM9SF1 (UniProt O15321),log2 fold change,Tubastatin A,inactive: 0.084
same,log2 fold change,[2],inactive: 0.023
same,log2 fold change,defactinib,inactive: -0.21
same,log2 fold change,[1],inactive: -0.07
same,log2 fold change,encorafenib,inactive: 0.002
same,log2 fold change,[3],inactive: -0.022
same,log2 fold change,alisertib,inactive: 0.032
same,log2 fold change,[4],inactive: 0.002
same,log2 fold change,gefitinib,inactive: 0.03
same,log2 fold change,lapatinib,inactive: -0.007
same,log2 fold change,pictilisib,inactive: -0.173
same,log2 fold change,crizotinib,inactive: -0.032
same,log2 fold change,duvelisib,inactive: -0.045
same,log2 fold change,tozasertib,inactive: 0.078
same,log2 fold change,doramapimod,inactive: 0.096
same,log2 fold change,bafetinib,inactive: 0.03

# Taken from the entries so far (four entries):
target,measurement,setting,value
TGFBR2 isoform 2 (UniProt P37173),log2 fold change,[2],inactive: 0.104
same,log2 fold change,[1],inactive: 0.094
same,log2 fold change,encorafenib,inactive: -0.154
same,log2 fold change,[3],inactive: 0.116

# Part of the list above in another layout.
target	measurement	setting	value
TMEM184C (UniProt Q9NVA4)	log2 fold change	[2]	inactive: -0.042
TM9SF1 (UniProt O15321)	log2 fold change	[4]	inactive: 0.002

# Another view of some results above:
target | measurement | setting | value
TICRR (UniProt Q7Z2Z1) | log2 fold change | duvelisib | inactive: 0.116
TMEM184C (UniProt Q9NVA4) | log2 fold change | [2] | inactive: -0.042
TM9SF1 (UniProt O15321) | log2 fold change | [3] | inactive: -0.022
